Experimental data as given in PubChem BioAssay AID256 (DTP/NCI, 2004).
The list does not hold the whole screen: it gathers tests that were run many times, whatever their T/C, doses with no T/C, and many T/C values between a quarter and a half above the control. Other doses and runs of a compound stand elsewhere. T/C gives the treated animals as a percentage of the vehicle group. Some entries give survivors of the animals treated and no T/C: the source holds a T/C of zero for them, seemingly a mark for toxic or unscored doses. Some doses without a T/C left all or most animals alive at the check, yet need not have been tolerated: survival well below the control is almost never listed, so the zero probably covers shortened survival too. Counts of survivors are from the toxicity check (mostly the fifth day) where no day follows; animals may have died later. Schedule codes are those of the source, read here as Q, the interval in days (D) or hours (H), X, the number of doses. Some entries hold several experiments; their values stand side by side, smallest first. Counts like (3×) stand for listed records that agree. For survival time, this PubChem deposit counts one and a half times the control or more as active, and values a quarter to a half above the control carry no call in these data; other NCI protocols may use other cut-offs. Some molecules as drawn cover several salts, stereoisomers or complexes of the source; a dose is that of the sample tested. Some T/C values are followed by the survivors on the day toxicity was checked, most often the fifth; where none is given, no animal had died by that day.

Tested on: CD2F1 mice, L1210 leukemia ip, survival T/C
Experiment: NCI In Vivo Anticancer Drug Screen. Data for tumor model L1210 Leukemia (intraperitoneal) in CD2F1 (CDF1) mice
Settings: higher T/C = longer survival
How it was run: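 Transplantable tumor in mice; compound-treated vs vehicle-treated groups. Read-out = treated/control ratio of the measured endpoint.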

[1] = T/C endpoint: mean survival time, dose: 400.0 mg/kg/injection, schedule: Q04DX002 (ip), vehicle: saline with Tween-80
[2] = T/C endpoint: mean survival time, dose: 400.0 mg/kg/injection, schedule: Q01DX001 (ip), vehicle: saline
[3] = T/C endpoint: mean survival time, dose: 400.0 mg/kg/injection, schedule: Q01DX009 (ip), vehicle: saline
[4] = T/C endpoint: mean survival time, dose: 400.0 mg/kg/injection, schedule: Q04DX003 (ip), vehicle: saline with Tween-80
[5] = T/C endpoint: mean survival time, dose: 100.0 mg/kg/injection, schedule: Q01DX009 (ip), vehicle: Klucel (hydroxypropylcellulose) (HPC)
[6] = T/C endpoint: mean survival time, dose: 200.0 mg/kg/injection, schedule: Q01DX009 (ip), vehicle: Klucel (hydroxypropylcellulose) (HPC)
[7] = T/C endpoint: mean survival time, dose: 400.0 mg/kg/injection, schedule: Q01DX009 (ip), vehicle: Klucel (hydroxypropylcellulose) (HPC)
[8] = T/C endpoint: mean survival time, dose: 75.0 mg/kg/injection, schedule: Q01DX001 (ip), vehicle: saline
[9] = T/C endpoint: mean survival time, dose: 150.0 mg/kg/injection, schedule: Q01DX001 (ip), vehicle: saline
[10] = T/C endpoint: mean survival time, dose: 300.0 mg/kg/injection, schedule: Q01DX001 (ip), vehicle: saline
[11] = T/C endpoint: mean survival time, dose: 50.0 mg/kg/injection, schedule: Q01DX009 (ip), vehicle: saline with Tween-80
[12] = T/C endpoint: mean survival time, dose: 100.0 mg/kg/injection, schedule: Q01DX009 (ip), vehicle: saline with Tween-80
[13] = T/C endpoint: mean survival time, dose: 200.0 mg/kg/injection, schedule: Q01DX009 (ip), vehicle: saline with Tween-80
[14] = T/C endpoint: mean survival time, dose: 400.0 mg/kg/injection, schedule: Q01DX009 (ip), vehicle: saline with Tween-80
[15] = T/C endpoint: mean survival time, dose: 200.0 mg/kg/injection, schedule: Q04DX002 (ip), vehicle: saline with Tween-80

SMILES: Nc1ccn([C@@H]2C=C(CO)[C@@H](O)[C@H]2O)c(=O)n1
- T/C (T/C endpoint: median survival time, dose: 0.25 mg/kg/injection, schedule: Q01DX009 (ip), vehicle: saline): 126 % of control
- T/C (T/C endpoint: median survival time, dose: 0.5 mg/kg/injection, schedule: Q01DX009 (ip), vehicle: saline): 149 % of control [5 of 6 alive]
- T/C (T/C endpoint: median survival time, dose: 1.0 mg/kg/injection, schedule: Q01DX009 (ip), vehicle: saline, evaluated on day 30): 224, 276, 301 % of control
- T/C (T/C endpoint: median survival time, dose: 1.0 mg/kg/injection, schedule: Q01DX009 (ip), vehicle: saline, evaluated on day 45): 312 % of control
- T/C (T/C endpoint: median survival time, dose: 1.0 mg/kg/injection, schedule: Q01DX009 (ip), vehicle: saline, evaluated on day 60): 216 % of control
- T/C (T/C endpoint: median survival time, dose: 1.0 mg/kg/injection, schedule: Q01DX009 (oral), vehicle: saline): 149 % of control
- T/C (T/C endpoint: median survival time, dose: 1.0 mg/kg/injection, schedule: Q04DX003 (ip), vehicle: saline): 126 % of control
- T/C (T/C endpoint: median survival time, dose: 1.5 mg/kg/injection, schedule: Q01DX009 (ip), vehicle: saline, evaluated on day 30): 240 and 269 % of control
- T/C (T/C endpoint: median survival time, dose: 1.5 mg/kg/injection, schedule: Q01DX009 (ip), vehicle: saline, evaluated on day 45): 253 % of control
- T/C (T/C endpoint: median survival time, dose: 1.5 mg/kg/injection, schedule: Q01DX009 (ip), vehicle: saline, evaluated on day 60): 271 % of control
- T/C (T/C endpoint: median survival time, dose: 2.0 mg/kg/injection, schedule: Q01DX009 (ip), vehicle: saline): 146 % of control
- T/C (T/C endpoint: median survival time, dose: 2.25 mg/kg/injection, schedule: Q01DX009 (ip), vehicle: saline): 137 % of control
- T/C (T/C endpoint: median survival time, dose: 16.0 mg/kg/injection, schedule: Q04DX003 (ip), vehicle: saline): 146 % of control
- T/C (T/C endpoint: median survival time, dose: 125.0 micrograms/kg/injection, schedule: Q03HX024 (ip), vehicle: saline): 138 % of control
- T/C (T/C endpoint: median survival time, dose: 1000.0 micrograms/kg/injection, schedule: Q03HX024 (ip), vehicle: saline): 142 % of control

SMILES: Cc1ccc(NC(=O)N(CCCl)N=O)c(C)c1
- T/C (T/C endpoint: mean survival time, dose: 1.9 mg/kg/injection, schedule: Q01DX009 (ip), vehicle: other): 135 % of control
- T/C (T/C endpoint: mean survival time, dose: 2.9 mg/kg/injection, schedule: Q01DX009 (ip), vehicle: other): 141 % of control
- T/C (T/C endpoint: mean survival time, dose: 22.0 mg/kg/injection, schedule: Q01DX001 (ip), vehicle: other): 140 % of control

SMILES: CC(C)c1ccc2c(c1)CC[C@H]1[C@](C)(CN=C(N)CCl)CCC[C@]21C
- survivor count [1]: 3 of 3

SMILES: CCC1(O)C(=O)OCc2c1cc1n(c2=O)Cc2cc3cc(O)c(O)cc3nc2-1 (stereo not drawn)
- T/C (T/C endpoint: median survival time, dose: 10.0 mg/kg/injection, schedule: Q04DX002 (ip), vehicle: saline with Tween-80): 135 % of control
- T/C (T/C endpoint: median survival time, dose: 20.0 mg/kg/injection, schedule: Q04DX002 (ip), vehicle: saline with Tween-80): 135 and 142 % of control
- T/C (T/C endpoint: median survival time, dose: 80.0 mg/kg/injection, schedule: Q04DX002 (ip), vehicle: saline with Tween-80): 143 % of control

SMILES: C[C@]12CC[C@H](O)C[C@@]1(O)CC[C@@H]1[C@@H]2CC[C@]2(C)[C@@H](c3ccc(=O)oc3)C[C@H]3O[C@]132
- survivor count (T/C endpoint: mean survival time, dose: 20.0 mg/kg/injection, schedule: Q01DX009 (ip), vehicle: other): 0 of 6

SMILES: CCCCNC(=O)C1CC2c3c(Br)ccc4c3C(CC2N(C)C1)CN4C(C)=O (stereo not drawn)
- survivor count (T/C endpoint: mean survival time, dose: 100.0 mg/kg/injection, schedule: Q04DX003 (ip), vehicle: saline with Tween-80): 6 of 6

SMILES: Ic1cccs1
- survivor count (T/C endpoint: mean survival time, dose: 200.0 mg/kg/injection, schedule: Q01DX001 (ip), vehicle: saline): 2 of 4
- survivor count [2]: 0 of 4

SMILES: COC(=O)C(CC(C)C)NC(=O)C(N)CSC(c1ccccc1)(c1ccccc1)c1ccccc1 (stereo not drawn)
- T/C (T/C endpoint: mean survival time, dose: 200.0 mg/kg/injection, schedule: Q01DX009 (ip), vehicle: saline): 126 % of control
- T/C [3]: 127 % of control [5 of 6 alive]

SMILES: CCCCCCCCSC#N
- survivor count (T/C endpoint: mean survival time, dose: 100.0 mg/kg/injection, schedule: Q01DX001 (ip), vehicle: carboxymethylcellulose (CMC)): 1 of 4
- survivor count (T/C endpoint: mean survival time, dose: 200.0 mg/kg/injection, schedule: Q01DX001 (ip), vehicle: carboxymethylcellulose (CMC)): 0 of 4
- survivor count (T/C endpoint: mean survival time, dose: 400.0 mg/kg/injection, schedule: Q01DX001 (ip), vehicle: carboxymethylcellulose (CMC)): 0 of 4

SMILES: CC1(C)CC23C4COC(=O)C2CCC1C3CC4=O (stereo not drawn)
- survivor count (T/C endpoint: mean survival time, dose: 50.0 mg/kg/injection, schedule: Q01DX009 (ip), vehicle: DMSO): 3 of 6
- survivor count (T/C endpoint: mean survival time, dose: 100.0 mg/kg/injection, schedule: Q01DX009 (ip), vehicle: DMSO): 1 of 6

SMILES: C=C[CH2][Sn]([c]1ccccc1)([c]1ccccc1)[c]1ccccc1
- survivor count (T/C endpoint: mean survival time, dose: 25.0 mg/kg/injection, schedule: Q04DX003 (ip), vehicle: saline with Tween-80): 3 of 3

SMILES: CC(C)(CO)CN1CCCCC1
- survivor count [4]: 1 of 6

SMILES: CCOC(=O)C(C(=O)OCC)[N+](=O)[O-]
- survivor count [2]: 1 of 6

SMILES: O=C(c1ccccc1)c1ccsc1C(=O)O
- survivor count (T/C endpoint: mean survival time, dose: 100.0 mg/kg/injection, schedule: Q04DX002 (ip), vehicle: saline with Tween-80): 1 of 3

SMILES: NC(CSC(c1ccccc1)(c1ccccc1)c1cccc2ccccc12)C(=O)O (stereo not drawn)
- survivor count [3]: 0 of 6

SMILES: O=C(NNc1ccccc1)c1ccccc1
- survivor count [5]: 1 of 6
- survivor count [6]: 0 of 6
- survivor count [7]: 0 of 6

SMILES: O=NN(CCCl)C(=O)NC1CSCSC1
- T/C (T/C endpoint: mean survival time, dose: 4.0 mg/kg/injection, schedule: Q01DX001 (ip), vehicle: saline with Tween-80): 135 % of control

SMILES: CCCCCCCCCC(=O)N1CC[N+](C)(C)CC1
- survivor count (T/C endpoint: mean survival time, dose: 40.0 mg/kg/injection, schedule: Q01DX001 (ip), vehicle: saline): 0 of 6
- survivor count [8]: 0 of 6
- survivor count (T/C endpoint: mean survival time, dose: 80.0 mg/kg/injection, schedule: Q01DX001 (ip), vehicle: saline): 0 of 6
- survivor count [9]: 0 of 6
- survivor count [10]: 0 of 6

SMILES: Nc1cccc(C(=O)O)c1C(=O)O
- survivor count [11]: 6 of 6
- survivor count [12]: 3 of 6 and 5 of 6
- survivor count [13]: 3 of 6
- survivor count [14]: 0 of 6

SMILES: O=NN(CCCl)C(=O)Nc1ccc(Br)cn1
- T/C (T/C endpoint: mean survival time, dose: 13.0 mg/kg/injection, schedule: Q01DX001 (ip), vehicle: carboxymethylcellulose (CMC)): 125 % of control
- T/C (T/C endpoint: mean survival time, dose: 30.0 mg/kg/injection, schedule: Q01DX001 (ip), vehicle: carboxymethylcellulose (CMC)): 136 % of control

SMILES: O=C1NC(O)c2ccccc2O1 (stereo not drawn)
- T/C [14]: 130 % of control [5 of 6 alive]
- survivor count [14]: 2 of 6

SMILES: CCCCn1cnc2c(SSc3ncnc4c3ncn4CCCC)ncnc21
- T/C (T/C endpoint: mean survival time, dose: 166.0 mg/kg/injection, schedule: Q04DX003 (ip), vehicle: saline with Tween-80): 133 % of control [4 of 6 alive]
- T/C (T/C endpoint: mean survival time, dose: 200.0 mg/kg/injection, schedule: Q04DX003 (ip), vehicle: saline with Tween-80): 127 [4 of 6 alive] and 132 % of control [5 of 6 alive]
- T/C [4]: 135 % of control [5 of 6 alive]

SMILES: Cc1c(C)c(C)c2c(c1C)CCC2O (stereo not drawn)
- survivor count [12]: 0 of 3 (2×)
- survivor count [13]: 0 of 3 (2×)

SMILES: COc1c(NC(=O)Nc2ccccc2C)cccc1[N+](=O)[O-]
- survivor count (T/C endpoint: mean survival time, dose: 25.0 mg/kg/injection, schedule: Q04DX002 (ip), vehicle: saline with Tween-80): 3 of 3
- survivor count [15]: 3 of 3
- survivor count [1]: 3 of 3

SMILES: N#CC1C2C=CC(C2)C1C#N (stereo not drawn)
- survivor count [8]: 0 of 6
- survivor count [9]: 0 of 6
- survivor count [10]: 0 of 6

SMILES: CC1=C(Br)C(=O)C(Br)=C(Br)C1=O
- survivor count [11]: 5 of 6
- survivor count [12]: 0 of 6

SMILES: Cn1cnc([N+](=O)[O-])c1S(=O)(=O)NCN1CCOCC1
- survivor count [5]: 4 of 6
- survivor count [6]: 0 of 6 and 1 of 6
- survivor count [7]: 0 of 6

SMILES: COc1ccccc1NC(=O)Oc1ccc(C2CCCCC2)cc1
- survivor count [15]: 3 of 3
- survivor count [1]: 3 of 3
